Source: PubChem BioAssay AID540275 (National Center for Advancing Translational Sciences (NCATS), 2011)
Out of some 320,000 compounds screened, about 620 (0.19%) were called active. Inconclusive means that the source gave no clear call. Such entries were picked first, then a sample of the others. Cut-off read from the data, not from the text of the source: active = activation above about 80%; inconclusive = between about 30% and that limit; inactive = weaker than that.
Throughout, for activation: 0% is about no effect.

Protein sequences, listed by entry. Tags and fused reporters are not part of them.
UniProt Q8NER1, whole entry, looked up: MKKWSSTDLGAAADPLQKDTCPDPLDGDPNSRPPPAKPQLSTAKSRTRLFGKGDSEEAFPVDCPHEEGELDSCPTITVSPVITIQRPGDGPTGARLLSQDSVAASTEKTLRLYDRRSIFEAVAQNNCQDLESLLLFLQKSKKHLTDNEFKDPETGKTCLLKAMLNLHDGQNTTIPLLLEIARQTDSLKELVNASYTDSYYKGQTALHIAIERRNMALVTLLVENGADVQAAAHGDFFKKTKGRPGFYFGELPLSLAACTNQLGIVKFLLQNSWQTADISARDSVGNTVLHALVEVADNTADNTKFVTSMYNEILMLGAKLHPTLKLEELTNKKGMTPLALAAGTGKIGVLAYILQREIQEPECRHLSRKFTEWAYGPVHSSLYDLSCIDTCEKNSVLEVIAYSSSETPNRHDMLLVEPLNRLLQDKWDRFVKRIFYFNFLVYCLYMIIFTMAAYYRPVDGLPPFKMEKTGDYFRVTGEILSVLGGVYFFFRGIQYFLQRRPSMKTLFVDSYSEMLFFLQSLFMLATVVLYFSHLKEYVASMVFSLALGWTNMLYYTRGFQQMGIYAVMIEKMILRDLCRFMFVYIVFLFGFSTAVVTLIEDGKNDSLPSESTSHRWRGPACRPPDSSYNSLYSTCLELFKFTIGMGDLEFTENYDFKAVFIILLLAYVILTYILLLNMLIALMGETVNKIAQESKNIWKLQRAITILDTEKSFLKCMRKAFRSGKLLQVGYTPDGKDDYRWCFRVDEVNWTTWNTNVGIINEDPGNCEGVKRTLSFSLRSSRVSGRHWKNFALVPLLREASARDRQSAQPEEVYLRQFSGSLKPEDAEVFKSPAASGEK

The molecules below were run against Transient receptor potential cation channel subfamily V member 1 (Homo sapiens) (UniProt Q8NER1) (assay: HTS Assay for Compounds that Act as Agonists of the Vanilloid Receptor 1). Conditions: TRPV1-expressing cells, Fluo-8 calcium influx, agonist mode; at 8.33 µM, active compounds read high.
Excerpt: The transient receptor potential ion channel, family V, number 1, (TRPV1) is one of the most important molecular transducers of painful stimuli and a potential target for analgesic drug development. Although recent clinical trials with orthosteric antagonists have not produced a successful drug because of a hyperthermia side effect and their tendency to block thermal noxious pain, this ion channel is undeniably well placed in the pain pathway, and the idea of blocking pain signals before they enter the CNS is an excellent concept and of proven efficacy when TRPV1 agonists are used. We propose a new approach involving allosteric modulation to impose an activity-dependent constraint within the context of inflammation and tissue damage that would alter the responsiveness of the channel in a way that an orthosteric vanilloid antagonist cannot achieve. We believe that the allosteric modulator approach has not been explored for this target. The main goal of this proposal is to identify additional, new, potent allosteric modulators of TRPV1 that can be used to investigate TRPV1 function. Our recent report provides evidence of proof of concept, but the compounds are just at the edge of utility in terms of potency. […] The question of whether they can be used as analgesic agents is complex, but if suitable compounds are identified then testing for analgesic properties will be conducted. NIH Chemical Genomics Center [NCGC] NIH Molecular Libraries Probe Centers Network [MLPCN] MLPCN Grant: MH089480-1A1 Assay Submitter (PI): Michael Iadarola, National Institute of Dental and Cranofacial Research
Upon TRPV1 activation in TRPV1 cells, the channel opens and extracellular cations flow through the channel into the cytosol. A calcium binding dye (Fluo-8) becomes fluorescent when bound to calcium. This dye is pre-loaded into cells and is used as a marker for calcium influx. The amount of accumulated calcium is precisely quantified using the FDSS kinetic reader and the calcium dye. For the HTS assay, freshly prepared cells are plated at a density of 2000/well in 3 ul medium in 1536-well plates and cultured overnight at 35.5C. Cells will be loaded with 1 ul of the homogeneous calcium dye (ABD Bioquest) at room temperature for 40 to 90 minutes. Plates will be loaded into the FDSS kinetic reader and a 1 sec / cycle for 10 second baseline signal will be measured. Compound library will then be added with a pintool at 23 nl and measured kinetically for 3 minutes. This portion of the read is considered the agonist portion of the screen. Following the 3 minutes of incubation, an on board pipettor will deliver 1 ul of capsaicin for a final concentration equal to the EC20. Signal will be measured kinetically for an additional 2 minutes. This portion of the read is considered the allosteric enhancer portion of the screen. The FDSS reader has a standard filter set capable of measuring calcium bound Fluo-8 (ex=480 and em=520 nm).
With CCOC(=O)C1(CC2CC2)CCN(Cc2cc(Cl)c(O)c(OC)c2)CC1 the activation was inactive: 1.2%.
With O=C(Cc1ccc(Cl)c(Cl)c1)NC1CCCCCC1 the activation was inconclusive: 56%.
For O=C(Nc1nc2c(s1)CCCC2)C1COc2ccccc2O1 (centres undefined), the activation was inconclusive: 31.6%.
With CCN(CC(=O)NCc1ccc(Cl)cc1)C(=O)CSc1cccc(C(F)(F)F)c1 the activation was inconclusive: 52.3%.
CCOc1ccccc1N(C)C(=O)c1sc2ncn(CC(=O)N3CCCCC3C)c(=O)c2c1C (centres undefined) was tested, and the activation was inactive: -3.82%.
In the case of CN(C(=O)Nc1ccc(C(C)(C)C)cc1)C1CCCCC1, the activation is reported as inconclusive: 35.3%.
For O=C(Nc1c(C(=O)N2CCOCC2)oc2ccccc12)c1ccccc1Cl, the activation was inconclusive: 37.1%.
In the case of CN(C)S(=O)(=O)c1cccc(NC(=S)NCCc2ccccn2)c1, the activation is reported as inactive: 0.166%.
In the case of COCc1nc(-c2ccc(-c3ccc(OC)cc3)nc2OC)no1, the activation is reported as inconclusive: 35.4%.
CCc1cc(OCCCSc2nc(C)cc(=O)[nH]2)ccc1Cl was tested, and the activation was inconclusive: 68.6%.
For O=C(c1ccccn1)N1N=C2/C(=C/c3ccc(F)cc3)CCCC2C1c1ccc(F)cc1 (centres undefined), the activation was inconclusive: 38.6%.
With O=C(Nc1ccc2ccccc2c1)c1ccc(Cl)cc1 the activation was inconclusive: 34.3%.
For O=C(Nc1ccc(S(=O)(=O)N2CCCC2)cc1)c1c(F)cccc1F, the activation was inconclusive: 35.4%.
In the case of Cc1ccc(Nc2nc(CSc3nnnn3C)cs2)cc1, the activation is reported as inconclusive: 34.5%.
CC1CCCN(C(=O)CSc2nnc3n(C4CCCC4)c(=O)c4ccccc4n23)C1 (centres undefined) was tested, and the activation was inconclusive: 43.5%.
With Cc1cc2c(c(=O)n1-c1ccccc1)C1O[C@](c3ccsc3)(Cc3ccccc31)O2 the activation was “inactive”.
N#Cc1cnc(Nc2nc3ccccc3o2)nc1-c1ccccc1 was tested, and the activation was inactive: 1.54%.
For COC(=O)c1ccc(CN(Cc2ccc(C(=O)OC)o2)C(C)(C)C)o1, the activation was inactive: 9.88%.
In the case of Cc1cccc(C)c1NC(=O)c1cccc2c1C(=O)N(C1CCCCC1)C2, the activation is reported as inconclusive: 35.1%.
With COc1ccc(OC(C)C(=O)Nc2ccccc2F)cc1 (centres undefined) the activation was inactive: 25.3%.
For O=C(COC(=O)Cc1ccccc1[N+](=O)[O-])NCc1ccc(Cl)cc1, the activation was inconclusive: 30.3%.
COc1ccc(C2=NN(C(C#N)c3ccc(OC)c(OC)c3)C(c3ccccc3)C2)cc1 (centres undefined) was tested, and the activation was inconclusive: 35.2%.
With Cc1cccn2c(CN(C)C3CCCc4ccccc43)c(C(=O)N3CCOCC3)nc12 (centres undefined) the activation was inconclusive: 33.4%.
In the case of COc1ccc(/C=C/C(=O)c2ccccc2)cc1COc1ccc(F)cc1, the activation is reported as inconclusive: 42.8%.
Cc1ccc(C)c(OCCC(=O)OCC(=O)NCc2ccc(F)cc2)c1 was tested, and the activation was inconclusive: 60.7%.
With Cn1cc(C(=O)N2CCCC(Nc3ccc(F)cc3)C2)c2ccccc21 (centres undefined) the activation was inconclusive: 39.7%.
With CCC(C)c1ccc(S(=O)(=O)Nc2cccnc2)cc1 (centres undefined) the activation was inactive: 6.91%.
For CC(=O)N1c2ccc(S(=O)(=O)N3CCC(C(=O)NCc4ccc(C)cc4)CC3)cc2CC1C (centres undefined), the activation was inactive: -2.53%.
O=C(Nc1ccc(CSc2ccccc2)cc1)c1ccc(CN2CCOCC2)cc1 was tested, and the activation was inconclusive: 54.1%.
In the case of CCN1CCc2c(sc(NC(=O)c3ccc(S(=O)(=O)N(C)c4ccccc4)cc3)c2C(=O)NC)C1, the activation is reported as inconclusive: 30.9%.
In the case of Cc1ccc(Cl)c(OCC(=O)Nc2ccccc2N2CCCCC2)c1, the activation is reported as inconclusive: 31.5%.
In the case of CCCCN(CCCC)C(=O)/C=C/c1cccc([N+](=O)[O-])c1, the activation is reported as inconclusive: 55.3%.
Cc1cc2oc(=O)cc(CN3CCC(C)CC3)c2cc1Cl was tested, and the activation was inactive: 10.1%.
With COc1cc(OC)cc(-c2c(-c3cccs3)c3cc(-c4ccc(OC)cc4F)ccc3n2C)c1 the activation was inactive: -2.36%.
With CN(CC(=O)Nc1cccc(S(=O)(=O)NC2=NCCC2)c1)Cc1ccccc1Cl the activation was inactive: -0.701%.
In the case of Cc1ccc(Oc2nc(CN3CCOCC3)nc3sc4c(c23)CCC(C)C4)cc1 (centres undefined), the activation is reported as inconclusive: 48.4%.
In the case of CCOc1ccc2[nH]c(=O)c(C(c3nnnn3Cc3ccco3)N3CCN(C)CC3)cc2c1 (centres undefined), the activation is reported as inactive: 1.71%.
For CC(C)c1nc(N2CCN(C(=O)c3ccco3)CC2)c2c3c(sc2n1)CCCC3, the activation was inconclusive: 33.9%.
For CCn1c(/C=C/c2ccccc2)nc2ccccc2c1=O, the activation was inconclusive: 34.9%.
Cc1cccc(C)c1OCCNC(=O)OCc1ccccc1 was tested, and the activation was inconclusive: 47.9%.
With COc1cccc(NC(=O)NCc2ccccc2F)c1 the activation was inconclusive: 61.9%.
For O=C(Nc1ccc2c(c1)OCO2)c1cc2ncc(Br)cn2n1, the activation was inconclusive: 40.5%.
With CC(NC(=S)Nc1ccc(OC(F)F)cc1)c1ccc(F)cc1 (centres undefined) the activation was inconclusive: 34.2%.
For CCO[C@H]1OC(C(=O)N2CCCCCCC2)=C[C@@H](c2ccc(C(F)(F)F)cc2)[C@@H]1CCCO, the activation was inconclusive: 72.5%.
N#Cc1nc(-c2cccc3ccccc23)oc1NCCN1CCOCC1 was tested, and the activation was inconclusive: 39.1%.
N#Cc1nc(-c2ccc(OCc3ccccc3)cc2)oc1N1CCC(C(N)=O)CC1 was tested, and the activation was inconclusive: 39.9%.
O=C(Cc1ccccc1)N/N=C/c1ccc(Cl)cc1Cl was tested, and the activation was inconclusive: 43.1%.
In the case of COc1ccc(Cc2nnc(Nc3ccccc3)s2)cc1Br, the activation is reported as inconclusive: 41.2%.
In the case of O=C(CCN1C(=O)C2C3C=CC(C4CC34)C2C1=O)Oc1cccc2cccnc12 (centres undefined), the activation is reported as inactive: 0.324%.
With Cc1ccc(OCC(=O)N2CCN(S(=O)(=O)c3ccc(Cl)s3)CC2)cc1C the activation was inconclusive: 49.2%.
In the case of CC(C)(C)C1(C)OC(C(=O)NC2CCCCC2)C(C(=O)NC2CCCCC2)O1 (centres undefined), the activation is reported as inconclusive: 77.3%.
CC(C)N=C1NN=C(c2ccc(F)cc2)CS1 was tested, and the activation was inactive: 1.97%.
With O=C(Nc1ccc(Nc2ccccc2)cc1)c1cccc(F)c1 the activation was inconclusive: 67.5%.
COc1ccc(NC2CCCN(C(=O)CCC(=O)c3ccc(F)cc3)C2)cc1 (centres undefined) was tested, and the activation was inconclusive: 63.1%.
With c1ccc(-c2nc(NCC3CCCO3)c3oc4ccccc4c3n2)cc1 (centres undefined) the activation was inconclusive: 49.4%.
For N#CC(C#N)=C1C=CC=CN1/C(=C\c1ccccc1Cl)C(=O)c1ccccc1, the activation was inactive: 9.94%.
In the case of CN(Cc1c(C(=O)N2CCc3ccccc3C2)nc2ccc(Cl)cn12)C(C1CC1)C1CC1, the activation is reported as inconclusive: 37.6%.
COC(=O)c1ccc(NC(=S)NC2CCc3ccccc32)cc1 (centres undefined) was tested, and the activation was inconclusive: 74.4%.
With Cc1ccc(CN2CCSc3ccc(C(=O)NCc4cccnc4)cc32)cc1 the activation was inconclusive: 66.1%.
In the case of Cc1ccnc(NC2OC(=O)c3ccccc32)c1 (centres undefined), the activation is reported as inconclusive: 34.5%.
COc1ccccc1CN(C)CC(=O)Nc1ccccc1-c1ccccc1 was tested, and the activation was inconclusive: 35.1%.
For Cc1cc(C)c2nc(NNC(=O)c3cc(=O)c4ccccc4o3)sc2c1, the activation was inactive: 0.992%.
For COc1ccc(C(=O)Nc2cc(C)nn2-c2nc3ccccc3[nH]2)c(OC)c1, the activation was inconclusive: 33.1%.
In the case of CC(=O)c1cccc(NC(=O)N2CCc3ccccc3C2)c1, the activation is reported as inconclusive: 39.4%.
For O=C(CCN1C(=O)/C(=C/c2cccs2)SC1=S)Nc1cccc(O)c1, the activation was inconclusive: 57.2%.
In the case of CCOC(=O)[C@H]1[C@H]2COc3ccc(Cl)cc3[C@@H]2N2C(=O)c3cc(F)c(F)cc3NC(=O)[C@@]12C, the activation is reported as active: 81.1%.
For COc1ccc2nc(NC(=O)CCc3cc(OC)c(OC)c(OC)c3)sc2c1, the activation was inactive: 4.99%.
With COc1ccc(OCCCC(=O)NC(C)c2ccccc2)cc1 (centres undefined) the activation was inconclusive: 45.6%.
CCCCOC(=O)c1ccc(NC(=O)c2ccoc2C)cc1 was tested, and the activation was inconclusive: 41%.
COc1ccc(Cn2c(CCC(=O)Nc3ccccc3)nc3cccnc32)cc1 was tested, and the activation was inconclusive: 69.7%.
In the case of CC(CC(=O)Nc1ccc(Cl)c([N+](=O)[O-])c1)c1ccccc1 (centres undefined), the activation is reported as inconclusive: 35.4%.
Cc1ccc(NC(=O)c2ccc(Cl)c(S(=O)(=O)N3CCCCC3)c2)nc1 was tested, and the activation was inconclusive: 66.3%.
CCC/C(O)=C1\C(=O)CC(C)(C)CC1=Nc1ccccc1OC was tested, and the activation was inconclusive: 39.6%.
With Cc1ccc(C(=O)CSc2nc3ccccc3o2)cc1 the activation was inconclusive: 33.2%.
For CCCNC(=O)N1CCN(C(c2ccccc2)c2ccccc2)CC1, the activation was inconclusive: 57%.
In the case of COc1ccc(OC)c(C(=O)NC(CC(N)=O)c2ccc(N3CCN(c4ccc(F)cc4)CC3)c([N+](=O)[O-])c2)c1 (centres undefined), the activation is reported as inactive: -0.0712%.
For CCN=c1sc2ccccc2n1CC(O)COc1ccccc1 (centres undefined), the activation was inconclusive: 50.4%.
CCOC(=O)CNC(=O)CSc1nnc(-c2cccc(C)c2)n1-c1ccc(OC)cc1 was tested, and the activation was inactive: -4.84%.
CC(C)C(=O)c1cn(CC(=O)NCc2ccc3c(c2)OCO3)c2ccccc12 was tested, and the activation was inconclusive: 71.7%.
Cc1cccc(N2CCN(C(=O)COc3ccc4c(C)cc(=O)oc4c3C)CC2)c1C was tested, and the activation was inconclusive: 48.3%.
For O=C(Nc1nc2ccccc2s1)c1ccc(F)cc1, the activation was inconclusive: 56%.
For O=C(CSc1nnc(-c2ccc(F)cc2)o1)N1CCCCC1, the activation was inconclusive: 30.3%.
With O=C(Cc1ccccc1)Nc1ccc(SC(F)F)cc1 the activation was inconclusive: 47.7%.
For Cc1cccc(OCCCC(=O)N2CCCc3ccccc32)c1C, the activation was inconclusive: 30%.
Cc1ccc(C(=O)NCCCc2ccccc2)c(Cl)c1 was tested, and the activation was inconclusive: 50.2%.
In the case of O=C(Nc1ccc(Cl)cc1)N1CCC(c2nc(-c3ccc(F)cc3)no2)CC1, the activation is reported as inconclusive: 65%.
With CCC(CC)c1nnc(NC(=O)c2ccc3c(c2)OCO3)s1 the activation was inconclusive: 30.8%.
In the case of CCN(CC)S(=O)(=O)c1ccc(NC(=O)c2ccccn2)cc1, the activation is reported as inconclusive: 62%.
COc1ccc(NC(=O)CNC(=O)c2nn(-c3ccc(OC)c(OC)c3)c(=O)c3ccccc23)c(OC)c1 was tested, and the activation was inactive: -2.51%.
